Reference: PubChem BioAssay AID1347421 (Sanford-Burnham Center for Chemical Genomics, 2020)
The full ranking holds about 1,500 compounds; the median of “activity” is about 2, and the lowest 2% start at about -18. Some of the results follow. Activity calls are given as the source filed them.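 Rule for the calls: active = inhibition of at least 40% at 10 µM; inconclusive = no clear call, values can overlap the other calls; inactive = the rest.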

By UniProt entry, the sequences of proteins in these tests, tags left out. Where a name states a change or a piece, a line headed by the entry shows the natural chain unless it says otherwise.
UniProt O00391: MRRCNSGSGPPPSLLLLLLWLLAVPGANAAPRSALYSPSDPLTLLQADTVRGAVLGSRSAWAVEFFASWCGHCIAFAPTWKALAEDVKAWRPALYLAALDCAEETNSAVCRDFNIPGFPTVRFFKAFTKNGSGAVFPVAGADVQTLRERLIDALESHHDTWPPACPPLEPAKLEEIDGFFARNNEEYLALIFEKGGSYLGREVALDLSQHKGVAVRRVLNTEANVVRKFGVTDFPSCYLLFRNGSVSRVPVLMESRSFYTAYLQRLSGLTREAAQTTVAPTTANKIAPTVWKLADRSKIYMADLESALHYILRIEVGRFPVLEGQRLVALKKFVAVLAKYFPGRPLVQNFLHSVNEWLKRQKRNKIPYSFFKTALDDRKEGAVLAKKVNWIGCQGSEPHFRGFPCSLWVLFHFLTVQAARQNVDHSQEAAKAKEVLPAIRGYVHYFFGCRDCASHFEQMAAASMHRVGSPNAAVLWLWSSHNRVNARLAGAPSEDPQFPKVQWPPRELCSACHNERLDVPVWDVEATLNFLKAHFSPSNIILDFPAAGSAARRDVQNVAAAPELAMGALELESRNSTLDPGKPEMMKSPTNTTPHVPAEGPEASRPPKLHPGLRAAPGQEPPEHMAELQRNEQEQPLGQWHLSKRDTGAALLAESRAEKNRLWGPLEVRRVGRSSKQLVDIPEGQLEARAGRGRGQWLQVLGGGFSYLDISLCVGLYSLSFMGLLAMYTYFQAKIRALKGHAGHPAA

Biological target: Sulfhydryl oxidase 1 (Homo sapiens) (UniProt O00391)
Assay: QSOX1 enzyme inhibitors, confirmation, biochemical, ROS-Glo luminescence, single concentration (AID 1347421);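 note: 0% = DMSO wells with enzyme and 100% = wells lacking QSOX1 enzyme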
Conditions: recombinant hQSOX1, RNase A substrate, ROS-Glo H2O2 luminescence; at 10 µM

| SMILES | activity |
| --- | --- |
| O=C(CCN1CCCO1)N1CCC2(CCCN(CCCc3ccccc3)C2)C1 (stereo not given) | inactive: -2.5% |
| O=C(c1ccc(OC2CCN(Cc3ccccn3)CC2)cc1)N1C[C@@H]2CCC[C@H]1C2 | inactive: -4.5% |
| Cc1ccc(C(=O)N(CCN(C)C)CC2CCCN(Cc3ccccc3F)C2)cn1 (stereo not given) | inactive: -0.8% |
| CN(C)c1nc2n(c(=O)n1)CCN2C(=O)Nc1ccccc1 | 1.8% |
| COc1ccc(C(=O)NCc2cccnc2N2CCN(C(C)=O)CC2)cc1F | inactive: -2.7% |
| O=C(Cn1cncn1)N1CC[C@@H](N2CCN(CCc3ccccc3)CC2)[C@H](O)C1 | inactive: -2.2% |
| CCOc1ccc(CN2CCN(Cc3nc(CC)[nH]c3C)CC2CCO)cc1 (stereo not given) | inactive: -1.2% |
| C=CCN(CC=C)C(=O)c1coc(CN2CCN(Cc3ccccc3)CC2)n1 | 6.8% |
| O=C(CCC1CCCN(C(=O)c2ccnc(Cl)c2)C1)N1CCN(c2ccccn2)CC1 (stereo not given) | 6.6% |
| CC(Cn1cncn1)NC1CCN(c2cccc(-c3ccc(F)cc3)c2)CC1 (stereo not given) | 4.1% |
| CCOC(=O)N1CCN(C2CCCN(C(=O)CSC)C2)CC1 (stereo not given) | inactive: -4.3% |
| CCCCc1ncc(CN2CCc3onc(-c4ccc5c(c4)OCO5)c3C2)[nH]1 | 4.2% |
| CC(C)(C)Cc1n[nH]c2c1CN(C(=O)c1coc3c1C(=O)CCC3)CC2 | 2.1% |
| COc1ccc(OCC(O)CN(C)C)c(CNCCOC(C)C)c1 (stereo not given) | 4.6% |
| CC12CCC(C(=O)Nc3cccc4cccnc34)(OC1=O)C2(C)C (stereo not given) | inactive: -11.7% |
| COCCNCC1=C[C+]=C(N(C)C)C=C1 | 0.9% |
| COc1ccc2cc(-c3[nH]ncc3CN(CCO)Cc3cccs3)ccc2c1 | inactive: -3.9% |
| CCN1CCN(CC(O)COc2cccc(CNCCCSC)c2)CC1 (stereo not given) | 9.1% |
| Cc1cccn2c(=O)c3cc(C(=O)N4CCN(C)CC4)n(C)c3nc12 | 7.5% |
| O=C(CCCn1nnnc1CN1CCc2ccccc2C1)NCCc1cscn1 | 2.9% |
| Cc1c(CN2CCOC(Cc3ccccc3Cl)C2)cnn1C (stereo not given) | 2.2% |
| CCOCCn1ccc(-c2cccc(-c3cc(N(C)C)ncn3)c2)n1 | 5.5% |
| CCS(=O)(=O)c1ncc(CN(CCO)Cc2ccccc2)n1Cc1ccccc1 | 3.5% |
| CN(C)c1cc(N2C[C@H]3OC(=O)N(CCCc4ccc(F)cc4)[C@H]3C2)ncn1 | 4.7% |
| COC(=O)c1ccc(-c2nc(CN3CCCCC3c3nccs3)c(C)o2)cc1 (stereo not given) | 0.5% |
| O=C(CCn1cncn1)N1CCc2onc(-c3ccc(C(F)(F)F)cc3)c2C1 | 4.5% |
| CCOC(=O)C1(Cc2ccc(OC)cc2)CCN(C(=O)c2cncs2)CC1 | 8.7% |

7 of the compounds above, as tab-separated lines:
SMILES	activity
Cc1ccc(C(=O)N(CCN(C)C)CC2CCCN(Cc3ccccc3F)C2)cn1 (stereo not given)	inactive: -0.8%
CN(C)c1nc2n(c(=O)n1)CCN2C(=O)Nc1ccccc1	1.8%
COc1ccc(C(=O)NCc2cccnc2N2CCN(C(C)=O)CC2)cc1F	inactive: -2.7%
O=C(Cn1cncn1)N1CC[C@@H](N2CCN(CCc3ccccc3)CC2)[C@H](O)C1	inactive: -2.2%
CCOc1ccc(CN2CCN(Cc3nc(CC)[nH]c3C)CC2CCO)cc1 (stereo not given)	inactive: -1.2%
C=CCN(CC=C)C(=O)c1coc(CN2CCN(Cc3ccccc3)CC2)n1	6.8%
O=C(CCC1CCCN(C(=O)c2ccnc(Cl)c2)C1)N1CCN(c2ccccn2)CC1 (stereo not given)	6.6%

The list continues.

| SMILES | activity |
| --- | --- |
| O=C(CSc1ncc(-c2ccccc2)nn1)Nc1nccs1 | inactive: -15.2% |
| O=C(CCC1CCCN(C(=O)c2ccco2)C1)NCc1ccccc1F (stereo not given) | inactive: -0.1% |
| O=C(c1ccc(Cl)s1)N1CCC2(CCCN(CC3CC3)C2=O)C1 (stereo not given) | 10.4% |
| CSCC(=O)N1CCCC(Nc2ccc(C)c(C)c2)C1 (stereo not given) | 1.4% |
| COc1cc(CNCc2ccccc2C)ccc1OCC(O)CN1CCOCC1 (stereo not given) | 1.7% |
| O=C(c1cc(-c2cn[nH]c2)nc2cc(F)ccc12)N1CC2C[C@@H]3CC1C[C@H](C2)C3 | 3.1% |
| CN(Cc1cccc(OCC(O)CN(C)C2CCCCC2)c1)C1CCOCC1 (stereo not given) | 8.4% |
| CCc1cc(C(=O)NC2CC(=O)N(CC(C)(C)C)C2)on1 (stereo not given) | 3.8% |
| CN(Cc1n[nH]c2c1CCCCC2)CC1(c2cccc(F)c2)CCOC1 (stereo not given) | 4% |
| Cc1cc(Cl)ccc1C(=O)C1CCCN(C(=O)C(=O)CC(C)C)C1 (stereo not given) | 0.4% |
| O=C(Cc1cn2ccsc2n1)N1CCOC(Cc2ccc(F)cc2)C1 (stereo not given) | 1.3% |
| NC(=O)C1CCN(CC(O)COc2ccc(-c3ccccc3)cc2)CC1 (stereo not given) | 3.4% |
| O=C(Cn1cccn1)NC1CCCN(C2CCCCCC2)C1 (stereo not given) | inactive: -5.7% |
| Cc1ccc(S(=O)(=O)CC(=O)N2CCN(c3ccccc3)CC2)cc1 | inactive: -17% |
| CCOc1ccc(NC(=O)NC2CCS(=O)(=O)C2)cc1 (stereo not given) | inactive: -11.5% |
| COc1ccc(Cl)cc1NC(=O)CCC1CCCN(C(=O)CCc2cn[nH]c2)C1 (stereo not given) | 5.7% |
| C=CCN1CC(c2nc(-c3cnn(C)c3)c(C)[nH]2)CC1=O (stereo not given) | 2% |
| COCc1ccc(CNC2CC(=O)N(Cc3cccc4ccccc34)C2)o1 (stereo not given) | inactive: -3.8% |
| COc1ccccc1OCCn1ncc(N2CCC(CN)CC2)cc1=O | 0.2% |
| CCN(CC)C1CCN(Cc2ccc(-c3nc(C)c(F)c(=O)[nH]3)cc2)C1 (stereo not given) | inactive: -4.5% |
| COc1ccc(OC)c(Cc2nnc(CCC(=O)N(C)CCC3CCCCO3)o2)c1 (stereo not given) | inactive: -0.8% |
| CC(C)Oc1ccc(C(=O)N2CCC(CCC(=O)NC3CC3)CC2)cc1 | 3.9% |
| COc1cccc(-c2n[nH]c3c2CN(CCc2ccccc2)CC3)c1 | 5.1% |
| COc1ccccc1CCc1nnc(CCC(=O)NCCc2ccco2)o1 | 3.3% |
| CC(=O)n1nc(NCc2ccccc2)nc1NCc1ccccc1 | inactive: -22% |
| COc1ccc(CNCCc2ccncc2)c(OCC(O)CN2CCCC2)c1 (stereo not given) | inactive: 0% |
| CCC1COCCN1C(=O)c1cc(-c2cnn(C)c2)nc2cc(C)ccc12 (stereo not given) | 1.5% |

| SMILES | activity |
| --- | --- |
| CC(C)CN(CC(C)C)C(=O)Nc1ccccc1F | 8.8% |
| COc1cccc(-c2cccc(N3CCC(NC(C)c4cnn(C)c4)CC3)c2)c1 (stereo not given) | 0.2% |
| CCOC(=O)N1CCC(Nc2nncc(-c3ccc(C)o3)n2)CC1 | 6.3% |
| Cn1ncc(NCC2(c3cccc(F)c3)CCOC2)n1 (stereo not given) | 8.7% |
| Cc1nonc1CN(C)Cc1cccc(OCC(O)CN2CCOCC2)c1 (stereo not given) | 8.2% |
| COc1cccc(C(=O)C2CCCN(Cc3ccc4cccc(F)c4n3)C2)c1 (stereo not given) | inactive: -23.5% |
| CCN1CCCC1CNC(=O)c1ccc(OC2CCN(C(=O)CCOC)CC2)cc1 (stereo not given) | inactive: -2.5% |
| COC(=O)C1CCCCN1C(=O)c1ccc2oc(C(C)C)nc2c1 (stereo not given) | 4.4% |
| O=C(NCC(O)CO)c1ccc(OC2CCN(CCc3ccccc3)CC2)cc1 (stereo not given) | inactive: -0.6% |
| O=C(Cc1ccccc1F)Nc1ccc2c(c1)CN(Cc1ccoc1)CC2 | inactive: -1.9% |
| O=C(CCn1cnnn1)N1CCc2[nH]nc(-c3ccc(C(F)(F)F)cc3)c2C1 | 4.7% |
| O=C(c1cc(-c2cnn(CCO)c2)nc2cc(F)ccc12)N1C[C@H]2CC[C@H]1C2 | 1.1% |
| CN(Cc1cccc(OCC(O)CN2CCOCC2)c1)Cc1ccncn1 (stereo not given) | 11.2% |
| Cc1cccc(CN2CCCC3(CCN(C(=O)C4CCCCC4)C3)C2=O)c1 (stereo not given) | 6.9% |
| COc1cc(CNCCCSC)ccc1OCC(O)CN1CCCC1 (stereo not given) | inactive: -1.3% |
| O=C(CCC1CCN(Cc2cc3ccccc3s2)CC1)N1CCOCC1 | 4.3% |
| O=C(CCc1ccsc1)N1CCOC(Cc2ccccc2Cl)C1 (stereo not given) | 20.5% |
| O=C1N(CC2CC2)CCCC12CCN(Cc1cccc(-n3cccn3)c1)C2 (stereo not given) | inactive: -0.7% |
| O=C(NCCc1ccc(Cl)cc1)c1cccc(-n2cnnc2)c1 | inactive: -1% |
| C=CCC1(CC=C)CCCN1C(=O)c1cn(CC2COc3ccccc3O2)nn1 (stereo not given) | inactive: -0.3% |
| O=C(Nc1ccc(S(=O)(=O)NCC2CCCO2)cc1)N1CCCC1 (stereo not given) | 4.9% |
| O=C(CCc1ccncc1)N1CCOC(Cc2ccccc2Cl)C1 (stereo not given) | 3.1% |
| O=C(NCCCn1nnc2ccccc21)C1CCC(=O)N(CCN2CCOCC2)C1 (stereo not given) | inactive: -0.4% |
| COC(=O)C1CCN(CC(O)COc2cccc(CN(C)Cc3cccnc3)c2)CC1 (stereo not given) | 4.5% |
| Fc1cccc(C2(CNc3ccnn3Cc3ccco3)CCOC2)c1 (stereo not given) | 2.5% |
| CC(C)(C)CN1CCCC2(CCN(Cc3nc(-c4ccccc4)no3)C2)C1=O (stereo not given) | 3.2% |
| COc1ccc(C(=O)C2CCCN(Cc3ccc4cc(F)ccc4n3)C2)cc1OC (stereo not given) | 1.1% |

| SMILES | activity |
| --- | --- |
| c1cncc(CN2CCN(c3nc4nonc4nc3N3CCOCC3)CC2)c1 | 1.4% |
| Cc1ccc(S(=O)(=O)NCc2cccs2)cc1C | 0.8% |
| COc1ccc(S(=O)(=O)N2CCCC(C(=O)NC3CC3)C2)cc1OC (stereo not given) | inactive: -18.9% |
| COc1nc2ccccc2nc1CCC(=O)NC1CCCCCC1 | inactive: -2.6% |
| CN(C)CCC1CN(Cc2ccc(Cn3cccn3)cc2)CCO1 (stereo not given) | 5.4% |
| CCC(=O)N1CCCC(C(=O)Nc2ccccc2Oc2cccnc2)C1 (stereo not given) | 0.4% |
| Fc1cccc(C2(CN3CCCO3)CCOC2)c1 (stereo not given) | 7.3% |
| CCS(=O)(=O)c1ncc(CN2CCC(OCc3ccccc3)CC2)n1CCOC | 24.8% |
| O=C(NC1CCCC1)c1ccc(OC2CCN(C(=O)C3CCOC3)CC2)c(Cl)c1 (stereo not given) | 6.6% |
| O=C(c1cn(Cc2ccc(Cl)cc2)nn1)N1CCC(C(=O)N2CCCC2)CC1 | inactive: -2.4% |
| O=C1CC(C(=O)N2CCC(Oc3ccc(C(=O)NCCc4ccccc4)cc3)CC2)CN1 (stereo not given) | 3.2% |
| COC(=O)CCCNC(=O)CC1C(=O)NCCN1Cc1ccccc1OC (stereo not given) | 4.7% |
| COc1ccccc1CCN1CCC(CN(C)C(=O)c2cscn2)CC1 | inactive: -1.8% |
| CSCc1ccc(C(=O)N2CCC3(CCCN(CC(C)(C)C)C3)C2)o1 (stereo not given) | inactive: -0.7% |
| O=C(c1cn(Cc2ccccc2C(F)(F)F)nn1)N1CCCCCC1 | 2.1% |
| COc1cc2c(cc1OC)CN(C1CCCN(C(=O)c3csnn3)C1)CC2 (stereo not given) | 9.3% |
| CCn1ccnc1Cn1ccc(-c2cccc(-c3nccs3)c2)n1 | inactive: -7.8% |
| CCN1CCN(C(=O)CCC2CCN(C(=O)c3[nH]c(C)cc3C)CC2)CC1 | 1.7% |
| Cc1n[nH]c(C)c1CCN(C)C(=O)c1cn(Cc2ccccc2F)nn1 | 1.2% |
| CC(C)Cc1cc(CN2CCCC(CCC(=O)N3CCOCC3)C2)[nH]n1 (stereo not given) | 3.4% |
| CC(C)NC(=O)C(C)Oc1ccc(S(N)(=O)=O)cc1 (stereo not given) | inactive: -12.8% |
| O=C1CC(NCc2cccc(O)c2)CN1CCc1cccc(Cl)c1 (stereo not given) | 1.5% |
| CCN(CC)CC(=O)NCc1cccnc1N1CCN(c2ccccc2C)CC1 | 2% |
| NS(=O)(=O)C1=[C+]C=C(CCNCc2ccc(Br)cc2)C=C1 | inactive: -0.1% |

Shown field by field: part of the list above
Fc1cccc(C2(CN3CCCO3)CCOC2)c1 (stereo not given)
  activity: 7.3%
CC(C)NC(=O)C(C)Oc1ccc(S(N)(=O)=O)cc1 (stereo not given)
  activity: inactive: -12.8%
